Data as given in US20060281078, “Human fast-1 gene” (published 2006).
A weaker result is weaker than the reference pair of the same experiment. Where a protein sequence is shown, tags need not be part of it.

Target: T1, hFAST-1 forkhead domain (FAST-FH) (Homo sapiens) (UniProt O75593)
T1 sequence (limits assumed): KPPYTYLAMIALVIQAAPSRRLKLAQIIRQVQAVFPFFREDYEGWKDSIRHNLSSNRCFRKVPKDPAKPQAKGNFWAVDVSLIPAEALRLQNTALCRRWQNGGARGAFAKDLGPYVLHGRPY
Assay: EMSA
Conditions: bound less well than full length; purified recombinant protein; protein details: GST fusion; label: 32P

**Q.** Does “CGGATTGTGTATTGGCTGTAC (double strand) [FBE]” bind?
**A.** binds more weakly
